Assay results taken from PubChem BioAssay AID2685 (National Center for Advancing Translational Sciences (NCATS), 2010).
The list shows a part of the results. Shown are side measurements of this screen, not its main read-out; they come without a call. Compounds called inactive in the main read-out are mostly missing here. Words in brackets tell the shape of the fitted curve; partial curves, single points and poor fits give uncertain potencies.

Assay: qHTS Assay for Lipid Storage Modulators in Drosophila S3 Cells;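 for cell number change: cells counted by Cell Tracker Red CMTPX staining in the red channel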
Details: BODIPY lipid droplet fluorescence, 18-24 h; for cell number change: measured here: cell count max response, cells fed with added oleic acid
How it was run: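 Drosophila S3 cells loaded with oleic acid (400 uM, as added) and compounds at several concentrations; lipid droplets imaged by 488-nm laser-scanning cytometry, 500–530 nm intensity and object ratio to cell channel. Percent activity normalized to 20 uM Triacsin C.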

[1] = measured here: cell number channel AC50, cells fed with added oleic acid
[2] = measured here: lipid fluorescence (Fed channel) AC50, cells fed with added oleic acid

Structure (SMILES) | cell number change [%] | AC50 [1] | AC50 [2]
O=C(CCCNC(=O)c1ccc(Cl)cc1)OCc1cccc(Br)c1 | -18.1 | – | –
CCC(C)C(NC(=O)c1ccccc1NC(=O)c1ccco1)C(=O)NNC(=O)c1ccc(OC)cc1 (stereo unspecified) | -47.4 | 8.2 µM [falling, partial curve] | 32.6 µM [falling, single point]
CC(C1CC1)N(C(=O)c1ccccc1[N+](=O)[O-])c1ccccc1 (stereo unspecified) | 55.7 | 18.4 µM [rising, single point] | 29.1 µM [rising, single point]
COc1ccc(-n2c(SC3CCOC3=O)nc3ccccc3c2=O)cc1OC (stereo unspecified) | -7.96 | – | –
O=C(c1ccc(Cl)s1)N1CCc2ccccc21 | -21.8 | – | 6.51 µM [rising, single point]
Cc1cc(C(=O)Nc2sccc2C#N)c2ccccc2n1 | 7.56 | – | –
CCc1nc2ccc(C(=O)NCCCN3CCN(c4ccccc4F)CC3)cc2nc1CC | – | – | 5.8 µM [rising, single point]
C/C(=N/NC(=O)c1cccs1)c1c(C)[nH]n(-c2nc3ccccc3s2)c1=O | 10.1 | – | 16.4 µM [rising, single point]
COc1cccc(CSc2nnc(CSc3nc4nc(C)cc(C)n4n3)s2)c1 | – | – | 6.51 µM [rising, single point]
O=C(Cn1cnc2c(oc3ccccc32)c1=O)NCc1ccccc1 | -6.37 | 0.651 µM [falling, full curve] | 0.651 µM [falling, partial curve, poor fit]
Cc1ccc(C)c(OCCC(=O)Nc2cccc(S(=O)(=O)N3CCCC3)c2)c1 | – | – | 0.651 µM [rising, single point]
CCOc1ccc(N2C(=O)Nc3ccccc3C2(O)C(=O)N2CCN(c3ccccn3)CC2)cc1 (stereo unspecified) | – | 0.103 µM [rising, single point] | 0.13 µM [rising, single point]
Cc1ccc(S(=O)(=O)N2CCN(Cc3nc4ccccc4n3C)CC2)cc1 | -3.47 | – | 32.6 µM [rising, single point]
Cn1c(CSc2ncccn2)nnc1SCC(=O)N1CCCCC1 | -0.612 | – | 16.4 µM [rising, single point]
CC(C)Nc1cc(C(C)(C)C)nc2c(-c3ccccc3)cnn12 | -2.57 | – | 0.116 µM [rising, full curve, poor fit]
COc1ccccc1N1CCN(C(=O)C(NS(=O)(=O)c2cccs2)c2ccccc2)CC1 (stereo unspecified) | -8.05 | – | 29.1 µM [falling, single point]
CCOc1ccc(N/C(C)=C\C(=O)c2ccc3c(c2)OCCO3)cc1 | -26.1 | – | 23.1 µM [falling, single point]

Record cards, from the list above.
O=C(c1ccc(Cl)s1)N1CCc2ccccc21 in the list: cell number change [%]: -21.8; AC50 [2]: 6.51 µM [rising, single point]
Cc1ccc(S(=O)(=O)N2CCN(Cc3nc4ccccc4n3C)CC2)cc1 in the list: cell number change [%]: -3.47; AC50 [2]: 32.6 µM [rising, single point]
